Reference: publication PMC10163288
This is one part of the list.

B1: il2ra_site2_3nfp_normal_mot_HHH_b1_02297_000000279_0001_41_58_H_._HHH_b2_04513_0001_0000300006_0000001_0 (protein)
chain: SSSSDLEERVRELLREAEERREEGDEERVRELLAEATHLAFELGNFELFALINEVSFRLLKSSSS
B2: il2ra_site2_3nfp_normal_mot_HHH_b2_00429_000000100_0001_21_37_H_._HHH_b1_08311_0001_0000300035_0000001_0 (protein)
chain: SSSSDEEVERLIEEAEELLRNGNPEEAKRVISRATDLAYEAGDHRLFALLVDLVAVVAHLLSSSS
B3: il2ra_site1_1z92_normal_mot_0a69b5c9b02373fb877a90f2b4b0d8e1_0001_1_af2_000000257_0001_17_32_H_._5511cb2176c827d1feb3066af2f534d5_0001_af2_0001_0000300018_00000 … (protein)
chain: PEELAEKARELLENGNPEEAEKVLEKLARELGTEEAFKKDLELAERHLGDPRAALQALIDNLARD
B4: il2ra_site2_2erj_normal_mot_HHH_b2_05633_000000270_0001_38_52_H_._HHH_b2_02780_0001_0000100003_0000001_0 (protein)
chain: SSSSSSREVSEEVSELLALLFEIKDERELRELLEEAKELAEEVNSEFLKRYVEFAERDISSSSSS
B5: il2ra_site2_2erj_normal_mot_HHH_b2_05633_000000270_0001_38_52_H_._HHH_b1_01874_0001_0000700038_0000001_0 (protein)
chain: SSSSTESVEEVSRIALQVIELFKEGNPEEAREILEEAIEKFRELNDETAVRYLEYLRRDISSSSS
B6: il2ra_site1_3nfp_normal_mot_HHH_b1_08771_af2_000000209_0001_39_54_H_._HHH_b1_06608_af2_0001_0000800042_0000001_0_af2pred_0001_af2pred_swapped (protein)
chain: SSSSDKNRRVEELLKELSELNQHGDEEEAKRLIEEIRELVEELNNPLARELLEELEKLLNLSSSS
B7: il2ra_site1_2b5i_sap_20_mot_9a773f325bc24391a11cd301277c1e75_0001_1_000000041_0001_1_15_H_._HHH_b1_03334_0001_0000400022_0000001_0_0001_af2pred_dldesign_0_af2pr … (protein)
chain: SSSSSERRQLIEELTALLKELAAKGDEEALDEVEEKATEALRSKDEELLKEAIDLAKSLLSSSSS
B8: il2ra_site1_1z92_normal_mot_01209686ea234b34325f918445e6eade_0001_af2_000000144_0001_18_33_H_._9b48fa28f67d9e4d24aa4ae74bce6cf0_0001_0001_0000300014_0000001_0 (protein)
chain: DEIVEELRRLAEELKDPDIERVAELVQQMLRLGLPPEKAAKAVLKALEIQGDPELVELLEELLRK
B9: il2ra_site1_2b5i_sap_12_mot_HHH_b1_05608_000000027_0001_1_14_H_._HHH_b1_00614_0001_0000400027_0000001_0_0001_af2pred_dldesign_0_af2pred (protein)
chain: SSSSDELRDLIEEYIRRARELAAAGRLEEAKKLLIMARRAARRAGDAELLARVEALLAEISSSSS
B10: il2ra_site1_1z92_sap_16_mot_3addaf244d7ecd9a0b92efa75fcb2124_0001_1_000000006_0001_1_15_H_._HHH_b1_05664_0001_0000200013_0000001_0_0001 (protein)
chain: GKKHVEQAEKYAGGDPETFVRLVLRLLKAAGDLSPEELEELEEKLEELLKRDPEKAKKLAEELLN
B11: il2ra_site1_1z92_sap_14_mot_HHH_b1_08133_000000026_0001_1_19_H_._HHH_b1_03598_0001_0000500020_0000001_0_0001_af2pred_0001_af2pred (protein)
chain: SSAEKLLEEAVEKNDEELLREFIELLLKDIGDPHLVRRLLEILVKKLGLPPEVLERLRELLEELT
B12: il2ra_site2_2erj_normal_mot_HHH_b2_08201_000000058_0001_20_36_H_._HHH_b2_08333_0001_0000600017_0000001_0 (protein)
chain: SSSSSEEEEEVEELIERVRKLIKEGNPEEAEELLSRAFEIAYQAGNVELAAELIELAALLFSSSS
B13: il2ra_site1_2b5i_sap_14_mot_HHH_b1_04602_000000079_0001_23_39_H_._418b0f4789b0b78872a3c6dbebafb2a7_0001_af2_0001_0000100001_0000001_0_0001_af2pred_dldesign_0_af … (protein)
chain: SSSSSPETEEALRLFLEADKLYQAGKEEEAKEVLEKALEVAKKGKATSLEKAIERILEELSSSSS
B14: il2ra_site1_2b5i_normal_mot_HHH_b2_07442_af2_000000069_0001_1_16_H_._HHH_b1_02970_0002_0000100004_0000001_0_af2pred_dldesign_0_af2pred (protein)
chain: SSSSDEVSDKIYELYKEALKLWREGKKEEAIKKLEEALKLAKANNDPRAAEIERLIEYLKSSSSS
B15: il2ra_site2_3nfp_normal_mot_HHH_b1_00660_af2_000000090_0001_40_57_H_._HHH_b2_00546_0001_0000100002_0000001_0_af2pred_0001_1_af2pred_swapped (protein)
chain: SSSSDELEERVRELLKRAEELREEGNPEEARKLLAEAAQLAYENNDFELFALINEVREKLESSSS
B16: il2ra_site2_3nfp_sap_9_mot_HHH_b1_04622_000000276_0001_1_16_H_._HHH_b1_04070_0001_0000800040_0000001_0_0001 (protein)
chain: SDEEVAEYIRIALELAKEAARDPRIRELIEEVLKEFEEAEEKNDEEALSEVAQKAMELSKEAARS
B17: il2ra_site2_3nfp_sap_18_mot_ems_p1-14H-GBL-14H-GABBL-15H_0148_0001_0001_0002_000000194_0001_18_31_H_._23ebfa62fd02fe94bef511ea015e2715_0001_0001_0000100007_0000 … (protein)
chain: SSSDEEEREVEELIKELEELLRQGNPEEVERVALRAAALAARANNFELFARVVELMHKAVRSSSS
B18: il2ra_site2_3nfp_normal_mot_HHH_b1_00660_af2_000000090_0001_40_57_H_._HHH_b1_05967_0001_0000100007_0000001_0 (protein)
chain: SSSSDKEEEIERLLEQLKRAIEEGDEELARKLIREIAQLIYELQDFELFAILNELRALLASSSSS
B19: il2ra_site1_2b5i_sap_25_mot_HHH_b1_06833_000000178_0001_1_19_H_._806091bfbcaa362723928a6cd30e0ec0_0001_af2_0001_0000600031_0000001_0_0001_af2pred_dldesign_0_af2 … (protein)
chain: SSSSSSGKEVRRLILEADRLKKAGKEEEAKKLLEEALKLAKELGSKNLVKAIESALESISSSSSS

Each binder was assayed against il2ra, P01589 (assay: yeast display titration).

Apparent Kd, inactive:
B1 no binding seen
B2 no binding seen
B3 no binding seen
B4 no binding seen
B5 no binding seen
B6 no binding seen
B7 no binding seen
B8 no binding seen
B9 no binding seen
B10 no binding seen
B11 no binding seen
B12 no binding seen
B13 no binding seen
B14 no binding seen
B15 no binding seen
B16 no binding seen
B17 no binding seen
B18 no binding seen
B19 no binding seen

Quoted at random: 2 records from the list
Apparent Kd, inactive:
B14 no binding seen
B9 no binding seen
